{"sequences": {"note": "Sequences of proteins named here, by UniProt entry; tags and fusion partners are left off.", "UniProt Q14258": "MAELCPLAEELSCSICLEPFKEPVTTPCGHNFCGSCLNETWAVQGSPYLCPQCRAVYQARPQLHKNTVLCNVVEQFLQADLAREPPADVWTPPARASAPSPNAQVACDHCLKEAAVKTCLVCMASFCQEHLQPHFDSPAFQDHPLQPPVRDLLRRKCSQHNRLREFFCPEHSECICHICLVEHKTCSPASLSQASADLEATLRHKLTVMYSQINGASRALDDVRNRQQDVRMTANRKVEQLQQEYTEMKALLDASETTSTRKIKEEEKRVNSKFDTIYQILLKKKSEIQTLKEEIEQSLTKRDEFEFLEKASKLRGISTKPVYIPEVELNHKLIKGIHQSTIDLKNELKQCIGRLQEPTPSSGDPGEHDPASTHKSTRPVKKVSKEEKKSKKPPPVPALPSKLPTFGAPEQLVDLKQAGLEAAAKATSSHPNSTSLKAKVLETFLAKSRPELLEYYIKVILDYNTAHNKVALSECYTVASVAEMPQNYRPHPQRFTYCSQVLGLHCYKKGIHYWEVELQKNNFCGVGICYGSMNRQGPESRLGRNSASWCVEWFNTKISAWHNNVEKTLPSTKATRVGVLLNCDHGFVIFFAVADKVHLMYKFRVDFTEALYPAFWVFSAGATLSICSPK"}, "source": "paper PMC3900705", "biological_target": "GST-d2CARD (duck RIG-I CARD domains fused to GST) (duck) (UniProt D3TI84)", "test": "pull-down; GST pulldown from lysates of co-transfected chicken DF-1 cells on glutathione Sepharose 4B, 3 to 4 h at 4°C, lysis buffer 50 mM TRIS pH 7.2, 150 mM NaCl, 1% Triton X-100; immunoblot with anti-GST and anti-V5", "note": "These are yes or no findings as the source states them, for the method shown. In cells and extracts the contact can be indirect. Binding can be weak; no strength is given.", "data": [{"substance": "human TRIM25-V5, in chicken DF-1 cells (from UniProt Q14258 1-630) (enzyme)", "values": [{"measurement": "binding", "value": "binds"}]}]}
